Assay results taken from patent publication US10287281B2, “Pyrazoline derivatives as insecticidal compounds” (Syngenta Participations AG, priority 2013, dated 2019).
Some results were stated once for a whole list of compounds, not compound by compound.

Legend:
Assay type in all cases: in vivo
Heliothis virescens = Heliothis virescens (tobacco budworm) egg test on artificial diet; conditions: 200 ppm (concentration in well 18 ppm), eggs on artificial diet, 4 days incubation; egg mortality, larval mortality or growth inhibition
Thrips tabaci = Thrips tabaci (onion thrips) sunflower leaf disc spray test; conditions: 200 ppm spray on sunflower leaf discs, mixed ages, 7 days incubation; mortality
Tetranychus urticae = Tetranychus urticae (two-spotted spider mite) bean leaf disc spray test; conditions: 200 ppm spray on bean leaf discs, mixed ages, 8 days; egg, larval or adult mortality
Spodoptera littoralis = Spodoptera littoralis (Egyptian cotton leafworm) cotton leaf disc spray test; conditions: 200 ppm spray on cotton leaf discs, L1 larvae, 3 days after treatment; mortality, anti-feedant effect or growth inhibition
Plutella xylostella = Plutella xylostella (diamond back moth) artificial diet test; conditions: 200 ppm (concentration in well 18 ppm), L2 larvae, 6 days incubation, mortality or growth inhibition
Diabrotica balteata [1] = experiment: Diabrotica balteata (corn rootworm) maize sprout spray test; conditions: 200 ppm spray on maize sprouts, L2 larvae, 4 days after infestation; mortality or growth inhibition
Diabrotica balteata [2] = experiment: Diabrotica balteata (corn rootworm) artificial diet test; conditions: 200 ppm (concentration in well 18 ppm), L2 larvae, 5 days incubation, larval mortality or growth inhibition

Cc1cc(N2CC(c3cc(Cl)c(Cl)c(Cl)c3)(C(F)(F)F)C=N2)ccc1C(=O)NCC(F)(F)F (stereo not drawn) [Compound A11]
at least 80%: control of Heliothis virescens (Heliothis virescens) | control of Thrips tabaci (Thrips tabaci) | control of Tetranychus urticae (Tetranychus urticae) | control of Spodoptera littoralis (Spodoptera littoralis) | control of Plutella xylostella (Plutella xylostella) | control of Diabrotica balteata (Diabrotica balteata [1])

CCN1OCC(NC(=O)c2ccc(N3CC(c4cc(Cl)cc(Cl)c4)(C(F)(F)F)C=N3)cc2C)C1=O (stereo not drawn) [Compound A4]
at least 80%: control of Heliothis virescens (Heliothis virescens) | control of Thrips tabaci (Thrips tabaci) | control of Tetranychus urticae (Tetranychus urticae) | control of Diabrotica balteata (Diabrotica balteata [2]) | control of Spodoptera littoralis (Spodoptera littoralis) | control of Plutella xylostella (Plutella xylostella)

Cc1cc(N2CC(c3cc(Cl)cc(Cl)c3)(C(F)(F)F)C=N2)ccc1C(=O)NC1CS(=O)(=O)C1 (stereo not drawn) [Compound A6]
at least 80%: control of Heliothis virescens (Heliothis virescens) | control of Thrips tabaci (Thrips tabaci) | control of Tetranychus urticae (Tetranychus urticae) | control of Diabrotica balteata (Diabrotica balteata [2]) | control of Spodoptera littoralis (Spodoptera littoralis) | control of Plutella xylostella (Plutella xylostella)

Cc1cc(N2CC(c3cc(Cl)c(F)c(Cl)c3)(C(F)(F)F)C=N2)ccc1C(=O)NCC(=O)NCC(F)(F)F (stereo not drawn) [Compound A10]
at least 80%: control of Heliothis virescens (Heliothis virescens) | control of Thrips tabaci (Thrips tabaci) | control of Tetranychus urticae (Tetranychus urticae) | control of Spodoptera littoralis (Spodoptera littoralis) | control of Plutella xylostella (Plutella xylostella) | control of Diabrotica balteata (Diabrotica balteata [1])

CO/N=C/NC(=O)c1ccc(N2CC(c3cc(Cl)c(F)c(Cl)c3)(C(F)(F)F)C=N2)cc1C (stereo not drawn) [Compound A12]
at least 80%: control of Heliothis virescens (Heliothis virescens) | control of Thrips tabaci (Thrips tabaci) | control of Tetranychus urticae (Tetranychus urticae) | control of Spodoptera littoralis (Spodoptera littoralis) | control of Plutella xylostella (Plutella xylostella) | control of Diabrotica balteata (Diabrotica balteata [1])

CO/N=C/NC(=O)c1ccc(N2CC(c3cc(Cl)c(Cl)c(Cl)c3)(C(F)(F)F)C=N2)cc1C (stereo not drawn) [Compound A9]
at least 80%: control of Heliothis virescens (Heliothis virescens) | control of Thrips tabaci (Thrips tabaci) | control of Tetranychus urticae (Tetranychus urticae) | control of Spodoptera littoralis (Spodoptera littoralis) | control of Plutella xylostella (Plutella xylostella) | control of Diabrotica balteata (Diabrotica balteata [1])

Cc1cc(N2CC(c3cc(Cl)c(F)c(Cl)c3)(C(F)(F)F)C=N2)ccc1C(=O)NCC(F)(F)F (stereo not drawn) [Compound A15]
at least 80%: control of Heliothis virescens (Heliothis virescens) | control of Thrips tabaci (Thrips tabaci) | control of Tetranychus urticae (Tetranychus urticae) | control of Spodoptera littoralis (Spodoptera littoralis) | control of Plutella xylostella (Plutella xylostella) | control of Diabrotica balteata (Diabrotica balteata [1])

CO/N=C/NC(=O)c1ccc(N2CC(c3cc(Cl)cc(Cl)c3)(C(F)(F)F)C=N2)cc1C (stereo not drawn) [Compound A7]
at least 80%: control of Heliothis virescens (Heliothis virescens) | control of Thrips tabaci (Thrips tabaci) | control of Tetranychus urticae (Tetranychus urticae) | control of Diabrotica balteata (Diabrotica balteata [2]) | control of Spodoptera littoralis (Spodoptera littoralis) | control of Plutella xylostella (Plutella xylostella)

Cc1cc(N2CC(c3cc(Cl)cc(Cl)c3)(C(F)(F)F)C=N2)ccc1C(=O)NC1CCC1 (stereo not drawn) [Compound A16]
at least 80%: control of Heliothis virescens (Heliothis virescens) | control of Thrips tabaci (Thrips tabaci) | control of Tetranychus urticae (Tetranychus urticae) | control of Diabrotica balteata (Diabrotica balteata [2]) | control of Spodoptera littoralis (Spodoptera littoralis) | control of Plutella xylostella (Plutella xylostella)

Cc1cc(N2CC(c3cc(Cl)cc(Cl)c3)(C(F)(F)F)C=N2)ccc1C(=O)NC1CC1 (stereo not drawn) [Compound A2, N-cyclopropyl-4-[4-(3,5-dichlorophenyl)-4-(trifluoromethyl)-3H-pyrazol-2-YL]-2-methyl-benzamide]
at least 80%: control of Heliothis virescens (Heliothis virescens) | control of Thrips tabaci (Thrips tabaci) | control of Tetranychus urticae (Tetranychus urticae) | control of Diabrotica balteata (Diabrotica balteata [2]) | control of Spodoptera littoralis (Spodoptera littoralis) | control of Plutella xylostella (Plutella xylostella)

Cc1cc(N2CC(c3cc(Cl)c(Cl)c(Cl)c3)(C(F)(F)F)C=N2)ccc1C(=O)NC1CCC1 (stereo not drawn) [Compound A13]
at least 80%: control of Heliothis virescens (Heliothis virescens) | control of Thrips tabaci (Thrips tabaci) | control of Tetranychus urticae (Tetranychus urticae) | control of Spodoptera littoralis (Spodoptera littoralis) | control of Plutella xylostella (Plutella xylostella) | control of Diabrotica balteata (Diabrotica balteata [1])

Cc1cc(N2CC(c3cc(Cl)c(Cl)c(Cl)c3)(C(F)(F)F)C=N2)ccc1C(=O)NCC(=O)NCC(F)(F)F (stereo not drawn) [Compound A8]
at least 80%: control of Heliothis virescens (Heliothis virescens) | control of Thrips tabaci (Thrips tabaci) | control of Tetranychus urticae (Tetranychus urticae) | control of Spodoptera littoralis (Spodoptera littoralis) | control of Plutella xylostella (Plutella xylostella) | control of Diabrotica balteata (Diabrotica balteata [1])

Cc1cc(N2CC(c3cc(Cl)c(F)c(Cl)c3)(C(F)(F)F)C=N2)ccc1C(=O)NC1CCC1 (stereo not drawn) [Compound A14]
at least 80%: control of Heliothis virescens (Heliothis virescens) | control of Thrips tabaci (Thrips tabaci) | control of Tetranychus urticae (Tetranychus urticae) | control of Spodoptera littoralis (Spodoptera littoralis) | control of Plutella xylostella (Plutella xylostella) | control of Diabrotica balteata (Diabrotica balteata [1])

Cc1cc(N2CC(c3cc(Cl)cc(Cl)c3)(C(F)(F)F)C=N2)ccc1C(=O)NCC(F)(F)F (stereo not drawn) [Compound A3, 4-[4-(3,5-dichlorophenyl)-4-(trifluoromethyl)-3H-pyrazol-2-yl]-2-methyl-N-(2,2,2-trifluoroethyl)benzamide]
at least 80%: control of Heliothis virescens (Heliothis virescens) | control of Thrips tabaci (Thrips tabaci) | control of Tetranychus urticae (Tetranychus urticae) | control of Diabrotica balteata (Diabrotica balteata [2]) | control of Spodoptera littoralis (Spodoptera littoralis) | control of Plutella xylostella (Plutella xylostella)

Cc1cc(N2CC(c3cc(Cl)cc(Cl)c3)(C(F)(F)F)C=N2)ccc1C(=O)NC1C[S+]([O-])C1 (stereo not drawn) [Compound A5]
at least 80%: control of Heliothis virescens (Heliothis virescens) | control of Thrips tabaci (Thrips tabaci) | control of Tetranychus urticae (Tetranychus urticae) | control of Diabrotica balteata (Diabrotica balteata [2]) | control of Spodoptera littoralis (Spodoptera littoralis) | control of Plutella xylostella (Plutella xylostella)

Cc1cc(N2CC(c3cc(Cl)cc(Cl)c3)(C(F)(F)F)C=N2)ccc1C(=O)NCC(=O)NCC(F)(F)F (stereo not drawn) [Compound A1, 4-[4-(3,5-dichlorophenyl)-4-(trifluoromethyl)-3H-pyrazol-2-yl]-2-methyl-N-[2-oxo-2-(2,2,2-trifluoroethylamino)ethyl]benzamide]
at least 80%: control of Heliothis virescens (Heliothis virescens) | control of Thrips tabaci (Thrips tabaci) | control of Tetranychus urticae (Tetranychus urticae) | control of Diabrotica balteata (Diabrotica balteata [2]) | control of Spodoptera littoralis (Spodoptera littoralis) | control of Plutella xylostella (Plutella xylostella)
